Laboratory results taken from the supplement of paper PMC6331611.
Several values for one entry are separate records, joined by “and”; a condition that tells them apart may be missing. Equal values may be shown once. ± gives the standard deviation of the averaged measurements. Over roughly 1,600 compounds, “normalized intracellular growth (luminescence, IQM-normalized) in RAW264.7 macrophages” has its median near 1; the lowest 2% begin near 0.43. The list shows a part of the results.

Tested on: Salmonella enterica serovar Typhimurium SL1344
Experiment: normalized intracellular growth (luminescence, IQM-normalized) in RAW264.7 macrophages (fraction of plate interquartile mean); higher = more bacterial growth (less inhibition)
Conditions: 10 µM

Compound | normalized intracellular growth (time point: T3 (3 h)) | normalized intracellular growth (time point: Tfinal (~6 h))
C[C@]12C=CC(=O)C=C1CC[C@@H]1[C@@H]2[C@@H](O)C[C@@]2(C)[C@H]1CC[C@]2(O)C(=O)CO | 0.8 ± 0.15 | 0.888 ± 0.078
O=C1C(CC[S+]([O-])c2ccccc2)C(=O)N(c2ccccc2)N1c1ccccc1 (centres undefined) | 1.14 ± 0.13 | 1.15 ± 0.036
NS(=O)(=O)c1cc2c(cc1Cl)N=C(CSCc1ccccc1)NS2(=O)=O | 1.01 ± 0.057 | 1.12 ± 0.1
CC(=O)OC/C=C(C)/C=C/C=C(C)/C=C/C1=C(C)CCCC1(C)C | 1.13 ± 0.075 | 1.08 ± 0.042
OC[C@@H](O)[C@@H](O)CO | 0.947 ± 0.1 | 1.08 ± 0.11
CC(C)[C@@H]1CC[C@@H](C)C[C@H]1O | 0.967 ± 0.013 | 0.961 ± 0.045
CO[C@@]1(NC(=O)C(C(=O)O)c2ccc(O)cc2)C(=O)N2C(C(=O)O)=C(CSc3nnnn3C)CO[C@@H]21 (some centres undefined) | 0.996 ± 0.041 | 1.14 ± 0.23
O=C1CC[C@@H](C(=O)O)N1 | 1.03 ± 0.091 | 1.1 ± 0.02
C#C[C@]1(O)CC[C@H]2[C@@H]3CCC4=CC(=O)CC[C@@H]4[C@H]3CC[C@@]21C | 1.01 ± 0.072 | 1.04 ± 0.13
C#C[C@]1(OC(C)=O)CC[C@H]2[C@@H]3CCC4=C[C@@H](OC(C)=O)CC[C@@H]4[C@H]3CC[C@@]21C | 1.05 ± 0.043 | 1.07 ± 0.16
Nc1ccc(S(=O)(=O)Nc2ncccn2)cc1 | 1.07 ± 0.011 | 1.06 ± 0.059
Clc1ccccc1CN1CCc2sccc2C1 | 1 ± 0.013 | 1.13 ± 0.15
CCC(=O)O[C@H](CC(=O)O)C[N+](C)(C)C | 1.06 ± 0.052 | 1 ± 0.028
CO[C@@]1(NC(=O)C2SC(=C(C(N)=O)C(=O)O)S2)C(=O)N2C(C(=O)O)=C(CSc3nnnn3C)CS[C@@H]21 (some centres undefined) | 1.02 ± 0.0062 | 1.05 ± 0.14
CN(C)CCCN1c2ccccc2CCc2ccc(Cl)cc21 | 0.965 ± 0.051 | 0.944 ± 0.039
Cc1cc(C(C)(C)CC(C)(C)C)ccc1OCCOCC[N+](C)(C)Cc1ccccc1 | 1.12 ± 0.014 | 0.563 ± 0.25
Cc1cc(NC(=O)C2=C(O)c3ccccc3S(=O)(=O)N2C)no1 | 0.971 ± 0.038 | 1.06 ± 0.17
COC(=O)C1=C(C)NC(C)=C(C(=O)OC)C1c1ccccc1[N+](=O)[O-] | 1.02 ± 0.045 | 1 ± 0.06
C#C[C@]1(O)CC[C@H]2[C@@H]3CCc4cc(OC)ccc4[C@H]3CC[C@@]21C | 1.02 ± 0.064 | 1.18 ± 0.087
CC(C)NCC(O)c1ccc(NS(C)(=O)=O)cc1 (centres undefined) | 0.981 ± 0.028 | 0.998 ± 0.036
CC(=O)N1CCN(c2ccc(OCC3COC(Cn4ccnc4)(c4ccc(Cl)cc4Cl)O3)cc2)CC1 (centres undefined) | 1.05 ± 0.021 | 1.09 ± 0.062
Cc1nc(C)c(Cl)c(O)c1Cl | 0.942 ± 0.035 | 1.16 ± 0.1

Compound | normalized intracellular growth (time point: T3 (3 h)) | normalized intracellular growth (time point: Tfinal (~6 h))
CCN(CC)CCCC(C)Nc1c2ccc(Cl)cc2nc2ccc(OC)cc12 (centres undefined) | 0.987 ± 0.061 | 1.07 ± 0.06
O=C(O)P(=O)(O)O | 0.973 ± 0.067 | 1.04 ± 0.1
CCCCCCCCCCCCCCCC[N+](C)(C)CCN(Cc1ccc(OC)cc1)c1ncccn1 | 1.01 ± 0.098 | 0.784 ± 0.13
NS(=O)(=O)c1ccc(C(=O)O)cc1 | 1.006 ± 0.0098 | 0.964 ± 0.076
CCOc1ccccc1C(N)=O | 1 ± 0.03 | 1.05 ± 0.1
CO[C@H]1C[C@@H]2CC[C@@H](C)[C@@](O)(O2)C(=O)C(=O)N2CCCC[C@H]2C(=O)O[C@H]([C@H](C)C[C@@H]2CC[C@@H](O)[C@H](OC)C2)CC(=O)[C@H](C)/C=C(\C)[C@@H](O)[C@@H](OC)C(=O)[C@H](C)C[C@H](C)/C=C/C=C/C=C/1C | 1.01 ± 0.052 | 1.18 ± 0.48
CCN(CC)CCNC(=O)c1ccc(NC(C)=O)cc1 | 1.03 ± 0.065 | 1 ± 0.12
CN1C(=O)CC(C)(c2ccccc2)C1=O (centres undefined) | 0.972 ± 0.072 | 1.02 ± 0.067
CNC[C@H](O)c1cccc(O)c1 | 0.759 ± 0.11 | 1.04 ± 0.07
CC(C)(CO)[C@@H](O)C(=O)NCCCO | 1.06 ± 0.026 | 0.972 ± 0.058
CCOC(=O)[C@H](CCc1ccccc1)N[C@@H](C)C(=O)N1[C@H](C(=O)O)C[C@H]2CCCC[C@@H]21 | 1.09 ± 0.025 | 1.17 ± 0.26
CNC(=C[N+](=O)[O-])NCCSCc1ccc(CN(C)C)o1 | 1.13 ± 0.029 | 1.16 ± 0.23
COC(=O)[C@H]1[C@H]2C[C@@H]3c4[nH]c5cc(OC)ccc5c4CCN3C[C@H]2C[C@@H](OC(=O)c2cc(OC)c(OC)c(OC)c2)[C@@H]1OC | 0.967 ± 0.039 | 0.924 ± 0.089
N[C@H](Cc1ccccc1)C(=O)O | 1.15 ± 0.065 | 1.05 ± 0.087
CCCc1nc(C)c2c(O)nc(-c3cc(S(=O)(=O)N4CCN(CC)CC4)ccc3OCC)nn12 | 0.997 ± 0.027 | 0.899 ± 0.1
Cc1ncc([N+](=O)[O-])n1C | 0.936 ± 0.053 | 0.98 ± 0.1
c1ccc2c(c1)CCCC2C1=NCCN1 (centres undefined) | 1 ± 0.049 | 0.889 ± 0.055
C[C@@H](O)[C@H]1C(=O)N2C(C(=O)O)=C(SCCNC=N)C[C@H]12 | 1.04 ± 0.055 | 1.03 ± 0.09
CCCCCN(C)CCC(O)(P(=O)(O)O)P(=O)(O)O | 0.886 ± 0.014 | 0.0897 ± 0.012
C[Se]CC[C@H](N)C(=O)O | 0.991 ± 0.048 | 1.19 ± 0.051
C1N2CN3CN1CN(C2)C3 | 0.984 ± 0.028 | 1.08 ± 0.047
CC(C)c1nc(N(C)S(C)(=O)=O)nc(-c2ccc(F)cc2)c1/C=C/[C@@H](O)C[C@@H](O)CC(=O)O | 0.938 ± 0.029 | 0.9595 ± 0.0089

Compound | normalized intracellular growth (time point: T3 (3 h)) | normalized intracellular growth (time point: Tfinal (~6 h))
Nc1ccc(S(=O)(=O)NC(=O)c2ccccc2)cc1 | 1.13 ± 0.037 | 1.08 ± 0.089
C[N+](C)(C)CCOP(=O)(O)OP(=O)([O-])OC[C@H]1O[C@@H](n2ccc(N)nc2=O)[C@H](O)[C@@H]1O | 0.972 ± 0.082 | 1 ± 0.14
Cc1cccc(C)c1NC(=O)c1ccccc1C(=O)O | 1.05 ± 0.04 | 0.872 ± 0.24
FCOC(C(F)(F)F)C(F)(F)F | 1.01 ± 0.052 | 0.806 ± 0.18
CS(=O)(=O)c1ccc([C@@H](O)[C@@H](CF)NC(=O)C(Cl)Cl)cc1 | 1.27 ± 0.096 | 0.22 ± 0.17
CCN(CC)CCCC(C)Nc1ccnc2cc(Cl)ccc12 (centres undefined) | 1 ± 0.025 | 1.1 ± 0.033
CC(C(=O)O)c1cccc(Oc2ccccc2)c1 (centres undefined) | 0.958 ± 0.04 | 0.979 ± 0.052
O=C(O)CN(CCN(CC(=O)O)CC(=O)O)CC(=O)O.[Na+].[Na+].[Na+] | 1.03 ± 0.021 | 1.54 ± 0.093
O=C1OC(c2ccc(O)cc2)(c2ccc(O)cc2)c2ccccc21 | 1.01 ± 0.065 | 0.809 ± 0.14
CCCc1ncc(C[n+]2ccccc2C)c(N)n1 | 0.981 ± 0.015 | 0.967 ± 0.048
CN(C)c1cnccn1 | 0.967 ± 0.046 | 0.904 ± 0.32
C=CCc1ccc(O)c(OC)c1 | 0.893 ± 0.035 | 0.976 ± 0.12
OC[C@@H](O)[C@@H](O)[C@H](O)[C@H](O)CO | 1.08 ± 0.061 | 0.975 ± 0.39
CC(=O)OCC(=O)NCCCOc1cccc(CN2CCCCC2)c1 | 1.02 ± 0.032 | 1.24 ± 0.077
CCn1cc(C(=O)O)c(=O)c2cc(F)c(N3CCNCC3)nc21 | 0.916 ± 0.07 | 0.245 ± 0.036
c1ccc(CC2=NCCN2)cc1 | 1 ± 0.037 | 1.07 ± 0.033
OCCN1CCN(CCCN2c3ccccc3Sc3ccc(C(F)(F)F)cc32)CC1 | 1.22 ± 0.062 | 1.17 ± 0.047
CC(C)(Oc1ccc(CCNC(=O)c2ccc(Cl)cc2)cc1)C(=O)O | 0.989 ± 0.017 | 1.14 ± 0.044
O=C(O)CCc1nc(-c2ccccc2)c(-c2ccccc2)o1 | 1.04 ± 0.12 | 1.17 ± 0.13
Clc1ccc2c(c1)C(N1CCNCC1)=Nc1ccccc1O2 | 1.03 ± 0.067 | 1.14 ± 0.082
O=C1c2ccccc2C(=O)C1c1ccccc1 | 0.975 ± 0.039 | 1.19 ± 0.098
CC[C@H]1OC(=O)[C@H](C)[C@@H](O[C@H]2C[C@@](C)(OC)[C@@H](O)[C@H](C)O2)[C@H](C)[C@@H](O[C@@H]2O[C@H](C)C[C@H](N(C)C)[C@H]2O)[C@](C)(O)C[C@@H](C)C(=O)[C@H](C)[C@@H](O)[C@]1(C)O | 0.964 and 0.725 | 0.913 and 0.963

Reprinted at random: 3 entries already listed, in no set order.
Compound | normalized intracellular growth (time point: T3 (3 h)) | normalized intracellular growth (time point: Tfinal (~6 h))
O=C(O)CCc1nc(-c2ccccc2)c(-c2ccccc2)o1 | 1.04 ± 0.12 | 1.17 ± 0.13
CN(C)c1cnccn1 | 0.967 ± 0.046 | 0.904 ± 0.32
c1ccc2c(c1)CCCC2C1=NCCN1 (centres undefined) | 1 ± 0.049 | 0.889 ± 0.055

Copied from the list:
normalized intracellular growth (time point: T3 (3 h)), Nc1ccc(S(=O)(=O)NC(=O)c2ccccc2)cc1 reads 1.13 ± 0.037
normalized intracellular growth (time point: T3 (3 h)), FCOC(C(F)(F)F)C(F)(F)F reads 1.01 ± 0.052
normalized intracellular growth (time point: T3 (3 h)), Clc1ccc2c(c1)C(N1CCNCC1)=Nc1ccccc1O2 reads 1.03 ± 0.067

The results go on.

Compound | normalized intracellular growth (time point: T3 (3 h)) | normalized intracellular growth (time point: Tfinal (~6 h))
CC(C(=O)O)c1ccc(CC2CCCC2=O)cc1 (centres undefined) | 1.05 ± 0.055 | 1.06 ± 0.064
CC1=C(/C=C/C(C)=C/C=C/C(C)=C/C=C/C=C(C)/C=C/C=C(C)/C=C/C2=C(C)CCCC2(C)C)C(C)(C)CCC1 [beta-CAROTENE] | 1.02 ± 0.044 | 1.12 ± 0.15
CO[C@H]1/C=C/O[C@@]2(C)Oc3c(C)c(O)c4c(O)c(c(/C=N/N5CCN(C)CC5)c(O)c4c3C2=O)NC(=O)/C(C)=C\C=C\[C@H](C)[C@H](O)[C@@H](C)[C@@H](O)[C@@H](C)[C@H](OC(C)=O)[C@@H]1C | 1.09 ± 0.079 | 0.83 ± 0.12
Cc1c(Cl)cccc1Nc1ccccc1C(=O)O | 1.1 ± 0.018 | 1.05 ± 0.2
CCCSc1ccc2[nH]c(NC(=O)OC)nc2c1 | 0.992 ± 0.03 | 0.954 ± 0.07
Cc1ccc(N(CC2=NCCN2)c2cccc(O)c2)cc1 | 0.978 ± 0.012 | 0.936 ± 0.033
O=C1c2c(O)cc(CO)cc2C(OC2OC(CO)C(O)C(O)C2O)c2cccc(OC3OC(CO)C(O)C(O)C3O)c21 (centres undefined) [CASANTHRANOL [cascaroside A shown]] | 0.997 ± 0.016 | 0.857 ± 0.041
CCc1ccc(CCOc2ccc(CC3SC(=O)NC3=O)cc2)nc1 (centres undefined) | 1.1 ± 0.031 | 1.08 ± 0.18
O=C(O)c1ccccc1-c1c2cc(I)c(=O)c(I)c-2oc2c(I)c(O)c(I)cc12 | 1.24 ± 0.017 | 1.21 ± 0.018
C[C@H](N[C@@H](CCc1ccccc1)C(=O)O)C(=O)N1CCC[C@H]1C(=O)O | 1.03 ± 0.024 | 1.03 ± 0.22
CN(C)[C@@H]1C(O)=C(C(N)=O)C(=O)[C@@]2(O)C(O)=C3C(=O)c4c(O)cccc4[C@@](C)(O)[C@H]3C[C@@H]12 | 0.598 ± 0.062 | 0.209 ± 0.048
COCCCC/C(=N\OCCN)c1ccc(C(F)(F)F)cc1 | 0.991 ± 0.047 | 0.956 ± 0.25
C[C@]12CCC(=O)C=C1CC[C@@H]1[C@@H]2C(=O)C[C@@]2(C)[C@H]1CC[C@]2(O)C(=O)CO | 0.977 ± 0.079 | 1.08 ± 0.11
COC(=O)[C@H](c1ccccc1Cl)N1CCc2sccc2C1 | 0.973 ± 0.029 | 0.927 ± 0.36
CC(=O)[C@@]12O[C@](C)(c3ccccc3)O[C@@H]1C[C@H]1[C@@H]3CCC4=CC(=O)CC[C@]4(C)[C@H]3CC[C@@]12C | 1.02 ± 0.042 | 1.24 ± 0.13
NC(=O)N[C@@H](CCC(=O)O)C(=O)O | 0.963 ± 0.023 | 0.872 ± 0.12
NC(=O)c1ccccc1O | 1.04 ± 0.085 | 0.978 ± 0.036
Nc1nc(F)nc2c1ncn2[C@@H]1O[C@H](COP(=O)(O)O)[C@@H](O)[C@@H]1O | 0.982 ± 0.061 | 1.16 ± 0.13
CCOC(=O)N1CCC(=C2c3ccc(Cl)cc3CCc3cccnc32)CC1 | 0.958 ± 0.02 | 1.18 ± 0.025
Oc1c(Br)cc(Br)c2cccnc12 | 0.991 ± 0.03 | 1.07 ± 0.084
CN1CCN(C2=Nc3ccccc3Oc3ccc(Cl)cc32)CC1 | 1.03 ± 0.028 | 0.898 ± 0.013
